Measurements taken from paper PMC10776911.
These are yes or no findings as the source states them, for the method shown. Binding seen in cells or lysates may run through a third protein. Some entries that bind do so weakly or less than the wild type.

The chains behind the UniProt entries cited, without tags or fusion partners.
UniProt Q16254: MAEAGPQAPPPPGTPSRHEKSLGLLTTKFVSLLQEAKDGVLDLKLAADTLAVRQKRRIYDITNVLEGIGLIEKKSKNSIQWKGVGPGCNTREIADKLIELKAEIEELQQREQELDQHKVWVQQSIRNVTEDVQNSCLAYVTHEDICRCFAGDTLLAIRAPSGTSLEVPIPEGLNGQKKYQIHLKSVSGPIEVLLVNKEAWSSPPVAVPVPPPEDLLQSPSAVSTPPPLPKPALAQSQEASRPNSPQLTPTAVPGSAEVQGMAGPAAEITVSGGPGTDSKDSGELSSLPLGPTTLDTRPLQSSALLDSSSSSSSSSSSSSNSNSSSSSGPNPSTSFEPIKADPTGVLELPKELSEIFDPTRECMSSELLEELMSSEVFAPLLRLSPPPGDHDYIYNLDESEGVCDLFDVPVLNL
UniProt Q04206: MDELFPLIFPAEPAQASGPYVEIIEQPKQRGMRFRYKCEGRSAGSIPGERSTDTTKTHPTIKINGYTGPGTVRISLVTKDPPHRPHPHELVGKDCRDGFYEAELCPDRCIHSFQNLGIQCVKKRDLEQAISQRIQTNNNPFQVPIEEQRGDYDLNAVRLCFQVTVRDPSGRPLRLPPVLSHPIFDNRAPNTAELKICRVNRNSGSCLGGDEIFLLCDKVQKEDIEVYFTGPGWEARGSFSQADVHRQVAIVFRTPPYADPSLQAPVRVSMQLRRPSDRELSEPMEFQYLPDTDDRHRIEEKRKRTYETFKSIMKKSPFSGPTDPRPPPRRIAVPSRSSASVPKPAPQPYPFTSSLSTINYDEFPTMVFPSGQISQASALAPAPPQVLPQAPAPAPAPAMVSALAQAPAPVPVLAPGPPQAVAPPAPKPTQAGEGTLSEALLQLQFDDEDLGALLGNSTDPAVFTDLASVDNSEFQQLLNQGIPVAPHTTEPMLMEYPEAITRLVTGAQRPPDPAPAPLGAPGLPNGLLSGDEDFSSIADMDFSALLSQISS

Biological target: Myc-tagged E2F4 (human) (UniProt Q16254)
Test: co-IP

Substance: Non-tagged human RelA (from UniProt Q04206 1-551)
- binding: binds
